Protein sequences, listed by entry. Tags and fused reporters are not part of them. Lines headed by an entry give the natural chain unless they say otherwise; changes in a name come on top.
UniProt Q96B42: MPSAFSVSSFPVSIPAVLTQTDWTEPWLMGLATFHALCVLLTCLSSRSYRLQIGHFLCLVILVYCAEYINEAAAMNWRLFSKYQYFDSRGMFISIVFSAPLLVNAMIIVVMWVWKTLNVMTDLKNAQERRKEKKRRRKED

In paper PMC3182218:

Biological target: TMEM18 (UniProt Q96B42)
Test: competition with a labelled probe
Details: against 400 nM biotin-(GCT)8, competitor 1 and 2.5 uM, shift not detectable at about 6-fold excess; EMSA: 10 mM Tris pH 7.4, 50 mM KCl, 1 mM DTT, 0.05% DDM, 30 min, RT; 4-20% TBE gel in 0.5x TBE; recombinant protein; residues 1-140; protein details: N-terminal Flag-His8

**Q.** Does “GCTGCTGCTGCTGCTGCTGCTGCT (double strand) [unlabelled (GCT)8]” bind?
**A.** Result: binds

The exact form of at least one protein or probe is not confirmed.
